Experimental data: paper PMC10896983
Results are given in words; binding and its absence hold for the method and conditions named. In cells and extracts the contact can be indirect. Binding calls can cover weak binding; strength is not graded here.

Target: murine iRhom2 N-terminal deletion nd197 (HA tag) (murine)
Test: co-IP; HEK293 stably expressing HA-tagged iRhom2 variants as bait; cleared lysate on anti-HA magnetic beads for 90 min, five washes with lysis buffer (50 mM Tris, 2 mM CaCl2, 137 mM NaCl, 2 mM EDTA, 10 mM 1,10-phenanthroline, pH 7.5); endogenous prey by immunoblot and densitometry; in some panels cells treated with NH4Cl or bafilomycin for 8 h or 16 h

B1: FRMD8 (endogenous, HEK293) (protein, UniProt Q9BZ67 1-464)
chain: MDGTEGSAGQPGPAERSHRSSVSSVGARAADVLVYLADDTVVPLAVENLPSLSAHELHRAVREVLQLPDIALDVFALWLVSPLLEVQLKPKHQPYKLGRQWPELLLRFTSAPDDDVAMDEPFLQFRRNVFFPKRRELQIHDEEVLRLLYEEAKGNVLAARYPCDVEDCEALGALVCRVQLGPYQPGRPAACDLREKLDSFLPAHLCKRGQSLFAALRGRGARAGPGEQGLLNAYRQVQEVSSDGGCEAALGTHYRAYLLKCHELPFYGCAFFHGEVDKPAQGFLHRGGRKPVSVAISLEGVHVIDSREKHVLLGLRFQELSWDHTSPEEEEPILWLEFDGDSEGTPVNKLLKIYSKQAELMSSLIEYCIELSQAAEPAGPQDSATGSPSDPSSSLAPVQRPKLRRQGSVVSSRIQHLSTIDYVEDGKGIRRVKPKRTTSFFSRQLSLGQGSYTVVQPGDSLEQG
binding: binds
